Measured values as given in patent US20110288116A1, “IAP INHIBITORS” (TETRALOGIC PHARMACEUITCAL CORPORATION, priority 2008, published 2011).

The chains behind the UniProt entries cited, without tags or fusion partners. Residues count along the entry.
UniProt Q13490, 266-343 limits assumed: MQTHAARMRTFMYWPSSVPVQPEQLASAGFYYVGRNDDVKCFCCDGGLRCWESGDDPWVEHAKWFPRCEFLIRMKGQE
UniProt P98170, 241-356 limits assumed: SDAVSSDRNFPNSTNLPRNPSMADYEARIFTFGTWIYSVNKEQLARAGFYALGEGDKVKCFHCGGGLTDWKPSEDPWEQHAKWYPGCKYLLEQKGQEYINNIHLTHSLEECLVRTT

Legend:
[1] = molecular target: cIAP-1 BIR-3 (Homo sapiens, UniProt Q13490); assay: Fluorescence polarization binding to cIAP-1 BIR-3 (competition with AbuRPF-K(5-Fam)-NH2); details: cells marked (cIAP-1): cIAP-1 BIR-3; reported as range class
Procedure: (§1) The binding affinities of the compounds are reported as a Kd value. Briefly, various concentrations of test peptides were mixed with 5 nM of the fluorescently labeled peptide (i.e., a mutated N-terminal Smac peptide—AbuRPF-K(5-Fam)-NH2) and 40 nM of the BIR3 for 15 min at RT in […] of 0.1M Potassium Phosphate buffer, pH 7.5 containing […] bovine g-globulin. Following incubation, the polarization values (mP) were measured on a Victor2V (available from PerkinElmer Life Sciences) using a 485 nm excitation filter and a 520 nm emission filter. The reported Kd values are supplied as ranges (A=<0.1 μM, B=0.1 μM to C=>1 μM to 10 μM, D=>10 μM) and, unless otherwise indicated, are the Kd for XIAP BIR-3.

[2] = molecular target: XIAP BIR-3 (Homo sapiens, UniProt P98170); assay: Fluorescence polarization binding to XIAP BIR-3 (competition with AbuRPF-K(5-Fam)-NH2); details: XIAP BIR-3 (default where cell does not indicate otherwise); reported as range class
Procedure: as §1

SMILES | Kd [1] [nM] | Kd [2] [nM]
CN[C@@H](C)C(=O)N[C@H](C(=O)N1CC[C@@H](O)[C@H]1Cc1c(-c2ccc(F)cc2)[nH]c2ccccc12)[C@@H](C)OC | < 100 | 
CC[C@H](NC)C(=O)N[C@H](C(=O)N1CC[C@H](O)[C@H]1Cc1c[nH]c2cc(F)ccc12)C1CCCCC1 |  | < 100
CCN[C@@H](C)C(=O)N[C@H](C(=O)N1CC[C@@H](O)[C@H]1Cc1c[nH]c2ccccc12)C(C)C | < 100 | 
CC[C@H](NC)C(=O)N[C@H](C(=O)N1CC[C@H](OC)[C@H]1Cc1c[nH]c2cc(F)ccc12)C(C)(C)C |  | > 10000
CN[C@@H](C)C(=O)N[C@H](C(=O)N1C[C@H](O)C[C@H]1C(=O)c1c[nH]c2cc(F)ccc12)C(C)(C)C | 1000 to 10000 | 
CC[C@H](NC)C(=O)N[C@H](C(=O)N1CC[C@H](O)[C@H]1Cc1c(Cl)[nH]c2cc(F)ccc12)C(C)(C)C | < 100 | 
CCN[C@@H](C)C(=O)N[C@H](C(=O)N1C[C@@H](O)C[C@H]1C[C@@H]1CN(C(C)=O)c2ccc(CC)cc21)C1CCCCC1 | > 100 | 

Continued, values first:

Kd [1] [nM] | Kd [2] [nM] | SMILES
< 100 |  | CN[C@@H](C)C(=O)N[C@H](C(=O)N1C[C@@H](O)C[C@H]1C[C@@H]1CN(C(C)=O)c2ccccc21)[C@@H](C)OC
> 100 |  | CN[C@@H](C)C(=O)N[C@H](C(=O)N1CC[C@H](OC)[C@H]1Cc1c(Cl)[nH]c2cc(F)ccc12)C(C)C
< 100 |  | CN[C@@H](C)C(=O)N[C@H](C(=O)N1C[C@@H](O)C[C@H]1C(=O)c1c[nH]c2cc(F)ccc12)C1CCCCC1
 | > 10000 | CCN[C@@H](C)C(=O)N[C@H](C(=O)N1CC[C@H](OC)[C@H]1Cc1c[nH]c2cc(F)ccc12)C(C)(C)C
1000 to 10000 |  | CN[C@@H](C)C(=O)N[C@H](C(=O)N1C[C@H](O)C[C@H]1C(=O)c1c[nH]c2cc(F)ccc12)C1CCCCC1
 | < 100 | CC[C@H](NC)C(=O)N[C@H](C(=O)N1CCC[C@H]1Cc1c[nH]c2ncccc12)[C@@H](C)OC
 | > 100 | CC[C@H](NC)C(=O)N[C@H](C(=O)N1CC[C@H](C)[C@H]1Cc1c[nH]c2cc(F)ccc12)[C@@H](C)O
 | < 100 | CN[C@@H](C)C(=O)N[C@H](C(=O)N1C[C@@H](O)C[C@H]1Cc1c[nH]c2ncccc12)C(C)(C)C
 | > 10000 | CC[C@H](NC)C(=O)N[C@H](C(=O)N1CC[C@H](OC)[C@H]1Cc1cn(C)c2cc(F)ccc12)[C@@H](C)OC

The structures given here were assigned with low confidence; some may be wrong.
